{"source": "the supplement of paper PMC8728848", "experiment_in_all_cases": "glycan array binding signal (z-score within array); higher = stronger binding", "settings_in_all_cases": "glycan notation: IUPAC condensed, linker removed", "key": {"[1]": {"target": "Fuc(a1-2)Gal", "procedure,_shortened": "(§1)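 Glycan array binding is given as a within-array Z-score, which can be read as non-binding when negative. The arrays, 3228 of them, came from the Consortium for Functional Glycomics database and were retained only where the protein sequence was available. Z-scores were averaged across arrays of the same protein sequence at different concentrations or buffers and across linkers.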"}, "[2]": {"target": "Fuc(a1-2)Gal(b1-3)GalNAc", "procedure,_shortened": "as §1"}, "[3]": {"target": "Fuc(a1-2)Gal(b1-3)GalNAc(b1-3)Gal", "procedure,_shortened": "as §1"}, "[4]": {"target": "Fuc(a1-2)Gal(b1-3)GalNAc(b1-3)Gal(a1-4)Gal(b1-4)Glc", "procedure,_shortened": "as §1"}, "[5]": {"target": "Fuc(a1-2)Gal(b1-3)GalNAc(b1-4)[Neu5Ac(a2-3)]Gal(b1-4)Glc", "procedure,_shortened": "as §1"}, "[6]": {"target": "Fuc(a1-2)Gal(b1-3)GlcNAc", "procedure,_shortened": "as §1"}, "[7]": {"target": "Fuc(a1-2)Gal(b1-3)GlcNAc(b1-3)Gal(b1-4)Glc", "procedure,_shortened": "as §1"}, "[8]": {"target": "Fuc(a1-2)Gal(b1-3)[Fuc(a1-4)]GlcNAc", "procedure,_shortened": "as §1"}, "[9]": {"target": "Fuc(a1-2)Gal(b1-4)Glc", "procedure,_shortened": "as §1"}, "[10]": {"target": "Fuc(a1-2)Gal(b1-4)Glc6S", "procedure,_shortened": "as §1"}, "[11]": {"target": "Fuc(a1-2)Gal(b1-4)GlcNAc", "procedure,_shortened": "as §1"}, "[12]": {"target": "Fuc(a1-2)Gal(b1-4)GlcNAc(b1-2)Man(a1-3)[Fuc(a1-2)Gal(b1-4)GlcNAc(b1-2)Man(a1-6)]Man(b1-4)GlcNAc(b1-4)GlcNAc", "procedure,_shortened": "as §1"}, "[13]": {"target": "Fuc(a1-2)Gal(b1-4)GlcNAc(b1-2)Man(a1-6)[Gal(b1-4)GlcNAc(b1-2)Man(a1-3)]Man(b1-4)GlcNAc(b1-4)GlcNAc", "procedure,_shortened": "as §1"}, "[14]": {"target": "Fuc(a1-2)Gal(b1-4)GlcNAc(b1-3)Gal(b1-4)GlcNAc", "procedure,_shortened": "as §1"}, "[15]": {"target": "Fuc(a1-2)Gal(b1-4)GlcNAc(b1-3)Gal(b1-4)GlcNAc(b1-3)Gal(b1-4)GlcNAc", "procedure,_shortened": "as §1"}, "[16]": {"target": "Fuc(a1-2)Gal(b1-4)GlcNAc6S", "procedure,_shortened": "as §1"}, "[17]": {"target": "Fuc(a1-2)Gal(b1-4)[Fuc(a1-3)]GlcNAc", "procedure,_shortened": "as §1"}, "[18]": {"target": "Fuc(a1-2)Gal(b1-4)[Fuc(a1-3)]GlcNAc(b1-3)Gal(b1-4)[Fuc(a1-3)]GlcNAc", "procedure,_shortened": "as §1"}, "[19]": {"target": "Fuc(a1-2)Gal(b1-4)[Fuc(a1-3)]GlcNAc(b1-3)Gal(b1-4)[Fuc(a1-3)]GlcNAc(b1-3)Gal(b1-4)[Fuc(a1-3)]GlcNAc", "procedure,_shortened": "as §1"}, "[20]": {"target": "Fuc(a1-2)Gal6S(b1-4)Glc", "procedure,_shortened": "as §1"}, "[21]": {"target": "Fuc(a1-2)Gal6S(b1-4)Glc6S", "procedure,_shortened": "as §1"}, "[22]": {"target": "Fuc(a1-2)Gal6S(b1-4)GlcNAc", "procedure,_shortened": "as §1"}, "[23]": {"target": "Fuc(a1-2)[Gal(a1-3)]Gal", "procedure,_shortened": "as §1"}, "[24]": {"target": "Fuc(a1-2)[Gal(a1-3)]Gal(b1-3)GlcNAc", "procedure,_shortened": "as §1"}, "[25]": {"target": "Fuc(a1-2)[Gal(a1-3)]Gal(b1-4)Glc", "procedure,_shortened": "as §1"}, "[26]": {"target": "Fuc(a1-2)[Gal(a1-3)]Gal(b1-4)GlcNAc", "procedure,_shortened": "as §1"}, "[27]": {"target": "Fuc(a1-2)[Gal(a1-3)]Gal(b1-4)[Fuc(a1-3)]GlcNAc", "procedure,_shortened": "as §1"}, "[28]": {"target": "Fuc(a1-2)[Gal(a1-4)]Gal(b1-4)GlcNAc", "procedure,_shortened": "as §1"}, "[29]": {"target": "Fuc(a1-2)[GalNAc(a1-3)]Gal", "procedure,_shortened": "as §1"}, "[30]": {"target": "Fuc(a1-2)[GalNAc(a1-3)]Gal(b1-3)GlcNAc", "procedure,_shortened": "as §1"}, "[31]": {"target": "Fuc(a1-2)[GalNAc(a1-3)]Gal(b1-4)Glc", "procedure,_shortened": "as §1"}, "[32]": {"target": "Fuc(a1-2)[GalNAc(a1-3)]Gal(b1-4)GlcNAc", "procedure,_shortened": "as §1"}, "[33]": {"target": "Fuc(a1-2)[GalNAc(a1-3)]Gal(b1-4)[Fuc(a1-3)]GlcNAc", "procedure,_shortened": "as §1"}, "[34]": {"target": "Fuc(a1-2)[GalNAc(a1-4)]Gal(b1-4)GlcNAc", "procedure,_shortened": "as §1"}, "[35]": {"target": "Fuc(a1-2)[GalNAc(b1-3)]Gal", "procedure,_shortened": "as §1"}, "[36]": {"target": "Fuc(a1-3)GlcNAc", "procedure,_shortened": "as §1"}, "[37]": {"target": "Fuc(a1-3)[Gal(b1-4)]Glc6S", "procedure,_shortened": "as §1"}}, "note": "The list shows a part of the results."}
{"binder": "SLLPI (Homo sapiens), Q8IXA5 (protein) MVSALRGAPLIRVHSSPVSSPSVSGPRRLVSCLSSQSSALSQSGGGSTSAAGIEARSRALRRRWCPAGIMLLALVCLLSCLLPSSEAKLYGRCELARVLHDFGLDGYRGYSLADWVCLAYFTSGFNAAALDYEADGSTNNGIFQINSRRWCSNLTPNVPNVCRMYCSDLLNPNLKDTVICAMKITQEPQGLGYWEAWRHHCQGKDLTEWVDGCDF", "values": [{"measurement": "glycan array binding signal (z-score)", "setting": "[1]", "result": -0.333}, {"measurement": "glycan array binding signal (z-score)", "setting": "[2]", "result": -0.368}, {"measurement": "glycan array binding signal (z-score)", "setting": "[3]", "result": 1.93}, {"measurement": "glycan array binding signal (z-score)", "setting": "[4]", "result": -0.283}, {"measurement": "glycan array binding signal (z-score)", "setting": "[5]", "result": -0.194}, {"measurement": "glycan array binding signal (z-score)", "setting": "[6]", "result": -0.188}, {"measurement": "glycan array binding signal (z-score)", "setting": "[7]", "result": -0.272}, {"measurement": "glycan array binding signal (z-score)", "setting": "[8]", "result": 0.478}, {"measurement": "glycan array binding signal (z-score)", "setting": "[9]", "result": 0.145}, {"measurement": "glycan array binding signal (z-score)", "setting": "[10]", "result": -0.173}, {"measurement": "glycan array binding signal (z-score)", "setting": "[11]", "result": -0.326}, {"measurement": "glycan array binding signal (z-score)", "setting": "[12]", "result": -0.63}, {"measurement": "glycan array binding signal (z-score)", "setting": "[13]", "result": -0.49}, {"measurement": "glycan array binding signal (z-score)", "setting": "[14]", "result": 0.263}, {"measurement": "glycan array binding signal (z-score)", "setting": "[15]", "result": 0.386}, {"measurement": "glycan array binding signal (z-score)", "setting": "[16]", "result": -0.264}, {"measurement": "glycan array binding signal (z-score)", "setting": "[17]", "result": -0.396}, {"measurement": "glycan array binding signal (z-score)", "setting": "[18]", "result": -0.373}, {"measurement": "glycan array binding signal (z-score)", "setting": "[19]", "result": -0.258}, {"measurement": "glycan array binding signal (z-score)", "setting": "[20]", "result": -0.133}, {"measurement": "glycan array binding signal (z-score)", "setting": "[21]", "result": 0.738}, {"measurement": "glycan array binding signal (z-score)", "setting": "[22]", "result": 0.21}, {"measurement": "glycan array binding signal (z-score)", "setting": "[23]", "result": 0.276}, {"measurement": "glycan array binding signal (z-score)", "setting": "[24]", "result": 0.113}, {"measurement": "glycan array binding signal (z-score)", "setting": "[25]", "result": -0.49}, {"measurement": "glycan array binding signal (z-score)", "setting": "[26]", "result": -0.244}, {"measurement": "glycan array binding signal (z-score)", "setting": "[27]", "result": 0.447}, {"measurement": "glycan array binding signal (z-score)", "setting": "[28]", "result": -0.38}, {"measurement": "glycan array binding signal (z-score)", "setting": "[29]", "result": 0.008}, {"measurement": "glycan array binding signal (z-score)", "setting": "[30]", "result": -0.048}, {"measurement": "glycan array binding signal (z-score)", "setting": "[31]", "result": -0.385}, {"measurement": "glycan array binding signal (z-score)", "setting": "[32]", "result": -0.22}, {"measurement": "glycan array binding signal (z-score)", "setting": "[33]", "result": 0.139}, {"measurement": "glycan array binding signal (z-score)", "setting": "[34]", "result": -0.013}, {"measurement": "glycan array binding signal (z-score)", "setting": "[35]", "result": -0.12}, {"measurement": "glycan array binding signal (z-score)", "setting": "[36]", "result": -0.25}, {"measurement": "glycan array binding signal (z-score)", "setting": "[37]", "result": -0.301}]}
